We go through one substance from article PMC3715429.

Sequences of proteins named here, by UniProt entry; tags and fusion partners are left off. Residues count along the entry.
UniProt P29317, residues 24-976: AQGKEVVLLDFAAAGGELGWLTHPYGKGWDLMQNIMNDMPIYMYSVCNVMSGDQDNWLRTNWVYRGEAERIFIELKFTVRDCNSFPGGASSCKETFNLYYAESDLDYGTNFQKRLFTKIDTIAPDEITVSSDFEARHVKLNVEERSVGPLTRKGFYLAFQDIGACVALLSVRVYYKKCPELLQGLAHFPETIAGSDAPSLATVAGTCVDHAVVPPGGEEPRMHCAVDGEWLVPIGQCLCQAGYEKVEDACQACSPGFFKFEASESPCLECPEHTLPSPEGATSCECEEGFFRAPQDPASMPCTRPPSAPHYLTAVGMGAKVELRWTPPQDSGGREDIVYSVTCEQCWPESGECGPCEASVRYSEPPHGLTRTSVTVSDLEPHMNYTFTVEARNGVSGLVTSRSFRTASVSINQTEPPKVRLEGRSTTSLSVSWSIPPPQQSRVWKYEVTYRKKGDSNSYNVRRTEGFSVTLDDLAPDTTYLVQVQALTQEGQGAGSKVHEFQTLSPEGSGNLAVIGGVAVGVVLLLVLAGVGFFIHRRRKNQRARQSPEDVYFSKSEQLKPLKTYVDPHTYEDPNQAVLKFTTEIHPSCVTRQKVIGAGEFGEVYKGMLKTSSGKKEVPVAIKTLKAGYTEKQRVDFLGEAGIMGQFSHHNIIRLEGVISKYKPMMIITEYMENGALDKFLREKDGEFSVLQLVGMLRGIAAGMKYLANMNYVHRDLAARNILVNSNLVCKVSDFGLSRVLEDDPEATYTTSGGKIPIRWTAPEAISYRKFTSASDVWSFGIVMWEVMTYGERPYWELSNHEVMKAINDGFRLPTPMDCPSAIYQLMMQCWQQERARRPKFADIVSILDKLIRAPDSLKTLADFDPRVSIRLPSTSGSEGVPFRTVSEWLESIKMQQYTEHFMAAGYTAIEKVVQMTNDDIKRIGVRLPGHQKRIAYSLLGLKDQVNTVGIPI
UniProt Q05397: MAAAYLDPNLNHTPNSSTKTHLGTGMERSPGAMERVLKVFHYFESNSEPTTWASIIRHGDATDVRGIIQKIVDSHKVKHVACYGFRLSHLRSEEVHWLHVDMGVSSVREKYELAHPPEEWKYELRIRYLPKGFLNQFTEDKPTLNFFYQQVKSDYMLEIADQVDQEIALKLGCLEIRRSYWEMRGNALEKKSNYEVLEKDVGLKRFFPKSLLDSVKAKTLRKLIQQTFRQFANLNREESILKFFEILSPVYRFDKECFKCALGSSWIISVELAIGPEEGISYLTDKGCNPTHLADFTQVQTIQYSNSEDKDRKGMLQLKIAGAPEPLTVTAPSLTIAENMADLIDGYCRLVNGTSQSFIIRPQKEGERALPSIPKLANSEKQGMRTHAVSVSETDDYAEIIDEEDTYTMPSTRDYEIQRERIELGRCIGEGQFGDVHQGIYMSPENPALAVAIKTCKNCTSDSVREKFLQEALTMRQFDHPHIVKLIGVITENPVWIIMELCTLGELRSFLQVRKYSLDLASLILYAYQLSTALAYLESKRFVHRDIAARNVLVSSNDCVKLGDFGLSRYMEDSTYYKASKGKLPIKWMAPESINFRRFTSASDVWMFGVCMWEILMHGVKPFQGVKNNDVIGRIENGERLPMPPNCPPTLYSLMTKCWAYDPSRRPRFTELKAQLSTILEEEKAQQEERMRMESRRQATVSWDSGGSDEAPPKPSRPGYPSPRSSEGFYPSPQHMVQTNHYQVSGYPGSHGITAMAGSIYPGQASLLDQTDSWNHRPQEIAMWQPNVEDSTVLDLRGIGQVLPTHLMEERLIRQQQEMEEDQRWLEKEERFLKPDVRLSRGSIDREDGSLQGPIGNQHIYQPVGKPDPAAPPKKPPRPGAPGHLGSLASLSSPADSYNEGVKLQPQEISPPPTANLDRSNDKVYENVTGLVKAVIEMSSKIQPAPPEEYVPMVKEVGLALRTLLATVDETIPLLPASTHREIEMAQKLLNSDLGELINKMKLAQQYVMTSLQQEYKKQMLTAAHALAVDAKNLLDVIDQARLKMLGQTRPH

For the test, the target named is EphrinA2 (EphA2) receptor tyrosine kinase (human (endogenous in HFF)) (UniProt P29317). Put plainly: co-IP; lysates of serum-starved HFF cells, mock or KSHV infected (5, 10, 30 min); IP with anti-EphA2 antibody, Western blot for c-Cbl, clathrin heavy chain, AP2, Epsin15, FAK, Src, PI3-K; also in untransfected and control siRNA cells (5 min p.i.); heparin-pretreated KSHV as specificity control.

These are yes or no findings as the source states them, for the method shown. Binding seen in cells or lysates may run through a third protein. Some binding calls cover weakened binding; strength is not graded here.

On to “FAK (from UniProt Q05397 1-1052) (enzyme)”, for which the binding result is recorded as “binds”.
